doi:10.1101/2021.03.26.437179
These are yes or no findings as the source states them, for the method shown. For part of these data: In cells and extracts the contact can be indirect. Some entries that bind do so weakly or less than the wild type. Sequences can lack the tags named with a protein.

Sequences of proteins named here, by UniProt entry; tags and fusion partners are left off. A change or cut given only in a name is not applied to a line headed by its entry.
UniProt Q38851: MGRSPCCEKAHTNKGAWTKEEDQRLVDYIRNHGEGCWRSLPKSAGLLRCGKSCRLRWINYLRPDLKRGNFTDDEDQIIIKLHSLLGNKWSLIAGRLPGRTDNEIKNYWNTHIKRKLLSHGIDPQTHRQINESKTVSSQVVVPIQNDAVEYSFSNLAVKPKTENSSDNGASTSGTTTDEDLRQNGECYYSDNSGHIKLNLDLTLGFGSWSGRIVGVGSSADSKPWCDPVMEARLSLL
UniProt P05804: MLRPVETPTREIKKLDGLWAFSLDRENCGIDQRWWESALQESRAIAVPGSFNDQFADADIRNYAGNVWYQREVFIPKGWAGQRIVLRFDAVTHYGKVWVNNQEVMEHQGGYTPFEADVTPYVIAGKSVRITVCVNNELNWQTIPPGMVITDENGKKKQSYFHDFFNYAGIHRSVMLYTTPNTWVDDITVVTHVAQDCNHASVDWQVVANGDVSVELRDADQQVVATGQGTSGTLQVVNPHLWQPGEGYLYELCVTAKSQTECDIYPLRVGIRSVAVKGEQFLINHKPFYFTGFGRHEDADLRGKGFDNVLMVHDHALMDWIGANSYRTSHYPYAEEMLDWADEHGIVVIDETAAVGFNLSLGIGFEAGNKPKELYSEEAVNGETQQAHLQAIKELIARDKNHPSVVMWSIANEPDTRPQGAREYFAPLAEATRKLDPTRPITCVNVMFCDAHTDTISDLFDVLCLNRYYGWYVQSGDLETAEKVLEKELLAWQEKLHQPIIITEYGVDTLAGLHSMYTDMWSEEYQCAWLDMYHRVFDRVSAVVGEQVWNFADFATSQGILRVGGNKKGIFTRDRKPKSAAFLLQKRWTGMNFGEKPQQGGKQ

Legend:
[1] = molecular target: T1, BD-PUB26 (Arabidopsis thaliana) (UniProt Q9FXA4); experiment: two-hybrid
T1 sequence: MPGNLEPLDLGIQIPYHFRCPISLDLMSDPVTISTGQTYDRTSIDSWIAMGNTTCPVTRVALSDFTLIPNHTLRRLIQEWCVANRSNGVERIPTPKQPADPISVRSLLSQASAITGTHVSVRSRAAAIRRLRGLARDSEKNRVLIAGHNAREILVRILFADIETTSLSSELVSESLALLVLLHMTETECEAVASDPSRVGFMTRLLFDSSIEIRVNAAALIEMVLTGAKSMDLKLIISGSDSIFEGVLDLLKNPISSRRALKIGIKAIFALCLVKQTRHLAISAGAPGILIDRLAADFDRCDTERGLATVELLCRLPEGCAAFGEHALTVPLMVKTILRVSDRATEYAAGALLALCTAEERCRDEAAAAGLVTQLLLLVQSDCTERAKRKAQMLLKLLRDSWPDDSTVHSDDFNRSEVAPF

[2] = molecular target: T2, BD-PUB25 (Arabidopsis thaliana) (UniProt Q9LT79); experiment: two-hybrid
T2 sequence: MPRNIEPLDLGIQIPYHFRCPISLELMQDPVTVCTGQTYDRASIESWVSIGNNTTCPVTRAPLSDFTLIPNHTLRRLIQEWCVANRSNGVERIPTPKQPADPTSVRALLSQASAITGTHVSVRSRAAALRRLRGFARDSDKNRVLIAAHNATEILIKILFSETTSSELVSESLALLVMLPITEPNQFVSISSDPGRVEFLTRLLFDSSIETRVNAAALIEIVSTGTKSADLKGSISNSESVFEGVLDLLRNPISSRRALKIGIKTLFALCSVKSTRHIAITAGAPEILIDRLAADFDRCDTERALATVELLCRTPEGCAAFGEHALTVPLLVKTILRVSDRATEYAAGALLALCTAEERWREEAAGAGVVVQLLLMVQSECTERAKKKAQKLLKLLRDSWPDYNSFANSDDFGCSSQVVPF

[3] = molecular target: T3, PUB26-ccLUC (Arabidopsis thaliana) (UniProt Q9FXA4); experiment: split reporter
T3 sequence: T1 sequence

[4] = molecular target: T4, PUB25-ccLUC (Arabidopsis thaliana) (UniProt Q9LT79); experiment: split reporter
T4 sequence: T2 sequence

| Substance | binding [1] | binding [2] | binding [3] | binding [4] |
| --- | --- | --- | --- | --- |
| MYB6 (1-111) (from UniProt Q38851 1-111) (domain or fragment) | binds | binds |  |  |
| MYB6-GZnLUC (from UniProt Q38851 1-236) |  |  | binds | binds |
| GUS-GZnLUC (from UniProt P05804 1-603) |  |  | no binding | no binding |
